This is one part of the list.

The chains behind the UniProt entries cited, without tags or fusion partners.
UniProt Q0JBA9, entry or part of it: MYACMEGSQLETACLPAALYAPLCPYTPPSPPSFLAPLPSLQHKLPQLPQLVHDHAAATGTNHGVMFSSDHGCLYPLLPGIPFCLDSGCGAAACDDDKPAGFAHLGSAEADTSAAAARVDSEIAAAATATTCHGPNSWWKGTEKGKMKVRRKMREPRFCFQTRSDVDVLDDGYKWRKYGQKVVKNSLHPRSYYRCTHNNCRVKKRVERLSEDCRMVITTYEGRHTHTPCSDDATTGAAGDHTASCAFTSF

This assay concerns the target OsWRKY34 (Oryza sativa, UniProt Q0JBA9 1-250). The assay can be described thus: protein-binding microarray (RPBM); PBS, 2% BSA, 51.3 ng/ul salmon testes DNA, 50 uM zinc acetate, 200 nM TF, 25 C, 1 h; high values mean tight binding. Particulars: protein: recombinant; tags: N-terminal polyhistidine and DsRed monomer fusion (pET32a); label: CyDye5-dUTP incorporated in the synthesized complementary strand; 3' TTTTT single-stranded linker to array surface; dsDNA, one strand shown. The gist of the method:
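Binding signal is reported as fluorescence intensity per feature (arbitrary units) from an Axon 4000B scanner. Incubation used 200 nM of each Ni–NTA-purified, N-terminally polyhistidine- and DsRed-fused transcription factor from E. coli BL21-CodonPlus on a double-stranded custom Agilent array for 1 h at 25 °C, with 50 µM zinc acetate in the buffer, followed by washing.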
Consider “ATACACTAAGTTTTACATAATTTTCCTTTGTTGTTGTTAACGGAGTCACCTAGTGCAG”, for which the binding signal was 8310 fluorescence intensity (a.u.).

Consider “CGTTCTTGTTCTTGTTCTTGTCCTCCTCTGCTTTAATTTTCGGAGTCACCTAGTGCAG”, for which the binding signal was 9410 fluorescence intensity (a.u.).

Take “CCATTGGTCTCTTCTTCGATCTACATATGTTTCTTCTGCTCGGAGTCACCTAGTGCAG”: the binding signal was 10600 fluorescence intensity (a.u.).

For “CCGTGCTTGCCATTTCCACCAACACTTGGACTAGTTACTCCGGAGTCACCTAGTGCAG”, the binding signal is 10500 fluorescence intensity (a.u.).

Consider “CTCCTCTCCATCTCCGTCTCCGTCTCGTGTCTTCTCGTCTCGGAGTCACCTAGTGCAG”, for which the binding signal was 10300 fluorescence intensity (a.u.).

Regarding “GCTCTCTCTATTCTGTTTGCAATCCTCTTCACCCTAATTTCGGAGTCACCTAGTGCAG”, the binding signal was 14300 fluorescence intensity (a.u.).

As for “TTTCGTTTGTGGATTTGCATCGGAGTTGCCCCATGTTCGTCGGAGTCACCTAGTGCAG”, the binding signal was 8380 fluorescence intensity (a.u.).

As for “TCTTGCTGCTCCCTCCACTGCTCGCCTCGCCTCCGCCACCCGGAGTCACCTAGTGCAG”, the binding signal was 9580 fluorescence intensity (a.u.).

“TCATACTCTTCCTCTCTCTCACTCTGTCTCACTCTTCTTCCGGAGTCACCTAGTGCAG”: the binding signal was 9330 fluorescence intensity (a.u.).

For the sequence “CTCCGCCGCCGTCGCCGCCGCCTCCACCTCCCGTACCCTCCGGAGTCACCTAGTGCAG”, the binding signal is 8460 fluorescence intensity (a.u.).

Regarding “CTATTTTCCGGCCATTTTACCCTTTTACTATCATCCAACGCGGAGTCACCTAGTGCAG”, the binding signal is 10100 fluorescence intensity (a.u.).

With “TAATTTTAAGGCTTTTATCGATATTTATTTTTTCGCCAATCGGAGTCACCTAGTGCAG”, the binding signal is 10600 fluorescence intensity (a.u.).

Turning to “CCTCACTCCACAGTCCACACCACTGCACCGCACTCTCTCTCGGAGTCACCTAGTGCAG”, the binding signal was 10600 fluorescence intensity (a.u.).

Turning to “TGCCCACACAATCCACTCATGACTATATCTATCTATCTATCGGAGTCACCTAGTGCAG”, the binding signal is 10600 fluorescence intensity (a.u.).

For the sequence “TTTTGCTATATATATTTTTGTCGATATTTTTTTCTAATATCGGAGTCACCTAGTGCAG”, the binding signal is 10400 fluorescence intensity (a.u.).

Turning to “AAAGCCAGCTTGTCACTGCGCTTCTTTCCTAGTTTCCTTCCGGAGTCACCTAGTGCAG”, the binding signal was 9130 fluorescence intensity (a.u.).

“ATCTGGTCTGCAGGTATTTTCTTTGTATTGTATATTTCTACGGAGTCACCTAGTGCAG”: the binding signal is 10000 fluorescence intensity (a.u.).

Take “CAGTCTGTCTTGGTCTCTTTGTTCAGTCATGGTCTCTCTTCGGAGTCACCTAGTGCAG”: the binding signal is 19000 fluorescence intensity (a.u.).

For “GCGATCGAGCAGGGTCGCCGTCGTTCGTCCTGCTGCTGCTCGGAGTCACCTAGTGCAG”, the binding signal is 8520 fluorescence intensity (a.u.).

In the case of “CCATTATAGCTTTGGATCGAATGCTTTTGTTTATTTTGACCGGAGTCACCTAGTGCAG”, the binding signal was 9150 fluorescence intensity (a.u.).

In the case of “AGTATTATTCCGTTTGTGAACCTCGTCGACGACGACGACGCGGAGTCACCTAGTGCAG”, the binding signal is 10400 fluorescence intensity (a.u.).

As for “GACCCTGAGCGGCCGCGCCATCGCCTCCGCCTCCGCCGACCGGAGTCACCTAGTGCAG”, the binding signal was 9030 fluorescence intensity (a.u.).

With “TTTTCAAGCGTTACCGCGATTGCTTACTCTTTGGTTTGAACGGAGTCACCTAGTGCAG”, the binding signal was 8530 fluorescence intensity (a.u.).

As to “GAGTGGCATATTGTTCTTTTTCTCTTATATTGTAATTTTTCGGAGTCACCTAGTGCAG”, the binding signal is 10600 fluorescence intensity (a.u.).

Consider “AAATCTACCCGTGTTTTGTATGCATGCGGCCGATCCTTATCGGAGTCACCTAGTGCAG”, for which the binding signal was 8140 fluorescence intensity (a.u.).

For the sequence “AGAGAGAGCGCTCTGGTACCCGTTCCCTCCGCCGCTCTCGCGGAGTCACCTAGTGCAG”, the binding signal was 8460 fluorescence intensity (a.u.).

For “AGCGTAGGTTGCAGTCTTGCAGAGATCTCAGTGTAAATTTCGGAGTCACCTAGTGCAG”, the binding signal is 8690 fluorescence intensity (a.u.).

On to “CCACCGACCACCCAATCCGTGTCATCCCCATCCGCACCATCGGAGTCACCTAGTGCAG”, for which the binding signal is 8720 fluorescence intensity (a.u.).

For the sequence “ACATGTTGGATTTTTATACCCGTCACTGGTGACCTTAAAACGGAGTCACCTAGTGCAG”, the binding signal was 8120 fluorescence intensity (a.u.).

On to “ATCGCGGAAGGTGGTGGACTGGTGGTGGGCGCGCGCGCGCCGGAGTCACCTAGTGCAG”, for which the binding signal was 8570 fluorescence intensity (a.u.).

Regarding “GTTGCGGGGTGGGTGGTGGCGTTGCGGGAGGAGGAGGGAGCGGAGTCACCTAGTGCAG”, the binding signal is 23100 fluorescence intensity (a.u.).

Take “AAATGTAGCGTCAAGTAACACGTGTATTCACATTTACGATCGGAGTCACCTAGTGCAG”: the binding signal is 8240 fluorescence intensity (a.u.).

On to “GGGTAACCAACAAAACCATACTGCGACACTCCACACCGTTCGGAGTCACCTAGTGCAG”, for which the binding signal is 8090 fluorescence intensity (a.u.).

For the sequence “GACCTCACCGTCTCACCGCCGCATCCCGCTCGCCGGTCACCGGAGTCACCTAGTGCAG”, the binding signal was 9430 fluorescence intensity (a.u.).

On to “TCTGAAGTTCGGGTCCATATTTTCCTTGCTACCAACATCACGGAGTCACCTAGTGCAG”, for which the binding signal is 9610 fluorescence intensity (a.u.).

In the case of “CGCACACGCCATGTACACCAGTATTGTACGCTTAACGCGTCGGAGTCACCTAGTGCAG”, the binding signal is 10200 fluorescence intensity (a.u.).

Take “CACAGATGAACCCTACTCTATTTTGCACCCGCTGCGGCTCCGGAGTCACCTAGTGCAG”: the binding signal is 8110 fluorescence intensity (a.u.).

Take “GTCCTCTTTCAATTATATAATATGTTACTTTTGATCACAACGGAGTCACCTAGTGCAG”: the binding signal was 9180 fluorescence intensity (a.u.).

With “TTTGAGTTAATGGTTTGCTTGTTTGATCTATCTTAAATCCCGGAGTCACCTAGTGCAG”, the binding signal is 9780 fluorescence intensity (a.u.).

Take “GATTGGTTTCTCCTCCGGTTTTCCCCATCGATCCCCTTCTCGGAGTCACCTAGTGCAG”: the binding signal is 16100 fluorescence intensity (a.u.).

For “AATCACATTCGTTCTTCTCCACCCAGTGCTACAACAACCTCGGAGTCACCTAGTGCAG”, the binding signal was 8440 fluorescence intensity (a.u.).

Turning to “TTGTTCTTTTTTAGGTCTTGCTTAGTTCCAAAGTTTTTTTCGGAGTCACCTAGTGCAG”, the binding signal was 11000 fluorescence intensity (a.u.).
